Source: PubChem BioAssay AID743121 (NCATS, 2013)
Screen: 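Knock-downs that sensitise breast cancer cells to camptothecin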 (primary screen). Cells: MDA-MB-231 cells, a human breast cancer line. Knock-down reagent: single siRNA against human genes, 20 nM siRNA (0.8 pmol per well). Timing: 120 h (drug added 48 h after transfection, read 72 h later). Conditions: camptothecin 20 nM (about EC30) for 72 h; vehicle 0.1% DMSO in parallel plates. Detection: 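CellTiter-Glo ATP signal, scaled to control siRNA as percent viability; sensitisation given as log2 of untreated divided by camptothecin-treated viability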. Reading the numbers: log2 vehicle/camptothecin viability: higher = stronger sensitisation to camptothecin; viability with camptothecin: higher = more viable cells. Units: viability with camptothecin in % of control. Call rule: 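Each gene scored by redundant siRNA activity (RSA) over its individual siRNA ratios; a gene is called active at p < 0.001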.
Shown is an unselected part of about 26,000 reagents. 167 of all reagents (0.63%) count as active. 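Calls are per gene from RSA p-values that are not deposited; an individual active-marked siRNA can sensitise only weakly.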 Not all columns of the deposit are shown.

PDLIM5 [SID164412303] gave log2 vehicle/camptothecin viability -0.161; viability with camptothecin 112; inactive.
After knock-down of PDLIM5 [SID164412306], the record shows log2 vehicle/camptothecin viability -0.452; viability with camptothecin 107; inactive.
After knock-down of PDLIM5 [SID164412307], the screen gave log2 vehicle/camptothecin viability 0.532; viability with camptothecin 66.3; inactive.
Knock-down of PDLIM5 [SID164412310] resulted in: log2 vehicle/camptothecin viability 0.237; viability with camptothecin 79.5; inactive.
Silencing of PIP4K2C [SID164533656] resulted in: log2 vehicle/camptothecin viability 0.0432; viability with camptothecin 86.9; inactive.
Against PIP4K2C [SID164533657] the deposit lists log2 vehicle/camptothecin viability -0.244; viability with camptothecin 95.6; inactive.
Knock-down of PIP4K2C [SID164533659] came out at: log2 vehicle/camptothecin viability 0.634; viability with camptothecin 68.1; inactive.
Against PIP4K2C [SID164533660], the values are log2 vehicle/camptothecin viability -0.386; viability with camptothecin 73; inactive.
Knock-down of ILK [SID164371518] came out at: log2 vehicle/camptothecin viability -0.317; viability with camptothecin 21.4; inactive.
After knock-down of ILK [SID164371519] the results were log2 vehicle/camptothecin viability -0.371; viability with camptothecin 95; inactive.
With knock-down of ILK [SID164371520], the screen gave log2 vehicle/camptothecin viability 0.129; viability with camptothecin 88.3; inactive.
With knock-down of ILK [SID164371526], the record shows log2 vehicle/camptothecin viability -0.0986; viability with camptothecin 87.4; inactive.
Knock-down of TMEM50B [SID164356074] came out at: log2 vehicle/camptothecin viability -0.141; viability with camptothecin 79.4; inactive.
With knock-down of TMEM50B [SID164356076], the screen gave log2 vehicle/camptothecin viability 0.43; viability with camptothecin 29.2; inactive.
Against TMEM50B [SID164356078] the deposit lists log2 vehicle/camptothecin viability -0.341; viability with camptothecin 76.5; inactive.
Against SETD1A [SID164405937] the deposit lists log2 vehicle/camptothecin viability 0.243; viability with camptothecin 60.3; inactive.
For SETD1A [SID164405939], the values are log2 vehicle/camptothecin viability -0.101; viability with camptothecin 60.9; inactive.
Against SETD1A [SID164405940], the values are log2 vehicle/camptothecin viability -0.202; viability with camptothecin 79.1; inactive.
Depletion of SETD1A [SID164405941] gave: log2 vehicle/camptothecin viability 1.03; viability with camptothecin 49; inactive.
Depletion of DLK2 [SID164506024] gave: log2 vehicle/camptothecin viability -0.219; viability with camptothecin 113; inactive.
Silencing of DLK2 [SID164506025] resulted in: log2 vehicle/camptothecin viability -0.331; viability with camptothecin 72.3; inactive.
DLK2 [SID164506026] scored log2 vehicle/camptothecin viability -0.0106; viability with camptothecin 72.3; inactive.
Knock-down of DLK2 [SID164506027] resulted in: log2 vehicle/camptothecin viability 0.175; viability with camptothecin 55.9; inactive.
LRRK1 [SID164532762] showed log2 vehicle/camptothecin viability -0.191; viability with camptothecin 100; inactive.
Knock-down of LRRK1 [SID164532763] resulted in: log2 vehicle/camptothecin viability -0.053; viability with camptothecin 97.2; inactive.
Depletion of LRRK1 [SID164532767] gave: log2 vehicle/camptothecin viability -0.596; viability with camptothecin 106; inactive.
With knock-down of LRRK1 [SID164532768], the record shows log2 vehicle/camptothecin viability -0.217; viability with camptothecin 138; inactive.
CYP21A2 [SID164360865] showed log2 vehicle/camptothecin viability -0.117; viability with camptothecin 85.8; inactive.
Silencing of CYP21A2 [SID164360868] came out at: log2 vehicle/camptothecin viability -0.552; viability with camptothecin 17; inactive.
Against CYP21A2 [SID164360869], the values are log2 vehicle/camptothecin viability -0.252; viability with camptothecin 43.4; inactive.
For CYP21A2 [SID164360870], the entry reads log2 vehicle/camptothecin viability -0.574; viability with camptothecin 52.4; inactive.
For PNRC2 [SID164485622], the entry reads log2 vehicle/camptothecin viability 0.000233; viability with camptothecin 101; inactive.
For PNRC2 [SID164485624], the entry reads log2 vehicle/camptothecin viability -0.388; viability with camptothecin 106; inactive.
Depletion of PNRC2 [SID164485626] gave: log2 vehicle/camptothecin viability -0.326; viability with camptothecin 95.5; inactive.
Silencing of PNRC2 [SID164485627] came out at: log2 vehicle/camptothecin viability -0.0812; viability with camptothecin 106; inactive.

6 neighbouring entries already listed, for reference:
DLK2 [SID164506026] — log2 vehicle/camptothecin viability: -0.0106; viability with camptothecin: 72.3; outcome: inactive
DLK2 [SID164506027] — log2 vehicle/camptothecin viability: 0.175; viability with camptothecin: 55.9; outcome: inactive
LRRK1 [SID164532762] — log2 vehicle/camptothecin viability: -0.191; viability with camptothecin: 100; outcome: inactive
LRRK1 [SID164532763] — log2 vehicle/camptothecin viability: -0.053; viability with camptothecin: 97.2; outcome: inactive
LRRK1 [SID164532767] — log2 vehicle/camptothecin viability: -0.596; viability with camptothecin: 106; outcome: inactive
LRRK1 [SID164532768] — log2 vehicle/camptothecin viability: -0.217; viability with camptothecin: 138; outcome: inactive
